Test results reported in patent US6372747B1, “Farnesyl protein transferase inhibitors” (Schering Corporation, priority 1998, dated 2002).
Some results were stated once for a whole list of compounds, not compound by compound.

Protein sequences, listed by entry. Tags and fused reporters are not part of them.
UniProt Q02293, whole entry: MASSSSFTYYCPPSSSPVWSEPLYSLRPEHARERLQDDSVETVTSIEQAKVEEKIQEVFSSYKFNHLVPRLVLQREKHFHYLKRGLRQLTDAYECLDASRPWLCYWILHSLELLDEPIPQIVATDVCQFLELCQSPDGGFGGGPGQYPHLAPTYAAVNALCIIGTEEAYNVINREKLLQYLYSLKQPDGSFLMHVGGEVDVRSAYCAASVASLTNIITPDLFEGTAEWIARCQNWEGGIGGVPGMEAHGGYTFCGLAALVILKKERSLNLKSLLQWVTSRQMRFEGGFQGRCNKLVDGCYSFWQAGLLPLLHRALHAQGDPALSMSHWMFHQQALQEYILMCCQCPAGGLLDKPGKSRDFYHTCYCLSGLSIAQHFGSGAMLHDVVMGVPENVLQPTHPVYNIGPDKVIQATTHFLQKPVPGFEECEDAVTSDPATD

Target: farnesyl protein transferase (Rattus norvegicus, UniProt Q02293+Q04631)
Experiment: FPT IC50 (inhibition of farnesyl protein transferase, in vitro enzyme assay)
Format: biochemical
Conditions: value is the range stated for the group unless single

SMILES	IC50 [nM]
CC(C)(C)NC(=O)N1CCN([C@H]2c3ccc(Cl)cc3CCc3cc(Br)cnc32)C[C@@H]1C(=O)NCCC1(n2ccnc2)CC1 [Example 12]	≤ 6.7
NC(=O)N1CCC(NC(=O)N2CCN(C3c4ccc(Cl)cc4CCc4cc(Br)cnc43)CC2C(=O)NCCCn2ccnc2)CC1 (stereo not shown) [Example 72 Step C]	≤ 6.7
O=C(NCCc1cncn1Cc1ccc(Cl)cc1)[C@H]1CN(C2c3ccc(Cl)cc3CCc3cc(Br)cnc32)CCN1C(=O)NC1CCCCC1 (stereo partly shown) [Example 299 Step B]	≤ 6.7
COCC(=O)N1CCN(C2c3ccc(Cl)cc3CCc3cc(Br)cnc32)C[C@@H]1C(=O)N(CCCn1ccnc1)Cc1ccccc1 (stereo partly shown) [Example 156]	≤ 6.7
CC(C)(C)OC(=O)N1CCN(C2c3ccc(Cl)cc3CCc3cc(Br)cnc32)C[C@@H]1C(=O)N(CCCn1ccnc1)Cc1cccnc1 (stereo partly shown) [Example 117]	≤ 6.7
Cc1cn(CCCN(Cc2ccccc2Cl)C(=O)[C@H]2CN([C@H]3c4ccc(Cl)cc4CCc4cccnc43)CCN2C(=O)OC2CCCCC2)cn1 (single isomer, unassigned) [Example 324]	≤ 6.7
Cc1cn(CCN(CC2CC2)C(=O)[C@H]2CN([C@H]3c4ccc(Cl)cc4CCc4cccnc43)CCN2C(=O)OC(C)(C)C)cn1 [Example 362]	≤ 6.7
Cc1cn(CCNC(=O)[C@H]2CN(C3c4ccc(Cl)cc4CCc4cc(Br)cnc43)CCN2C(=O)NC2CCCCC2)c(C)n1 (stereo partly shown) [Example 265]	≤ 6.7
Cc1cn(CCCN(Cc2c(CO)cnc(C)c2O)C(=O)[C@H]2CN([C@H]3c4ccc(Cl)cc4CCc4cccnc43)CCN2C(=O)OC2CCCCC2)cn1 (single isomer, unassigned) [Example 315]	≤ 6.7
NC(=O)N1CCC(OC(=O)N2CCN(C3c4ccc(Cl)cc4CCc4cc(Br)cnc43)CC2C(=O)NCCCn2ccnc2)CC1 (stereo not shown) [Example 309]	≤ 6.7
O=C(NCCc1cncn1CCc1ccccc1)[C@H]1CN(C2c3ccc(Cl)cc3CCc3cc(Br)cnc32)CCN1C(=O)NC1CCCCC1 (stereo partly shown) [Example 300]	≤ 6.7
CC(C)NC(=O)N1CCN([C@@H]2c3ccc(Cl)cc3CCc3cc(Br)cnc32)C[C@@H]1C(=O)N(CCCn1ccnc1)Cc1ccccc1 [Example 132]	≤ 6.7
CC(C)(C)CC(=O)N1CCN([C@H]2c3ccc(Cl)cc3CCc3cc(Br)cnc32)C[C@@H]1C(=O)N(CCCn1ccnc1)Cc1ccccc1 [Example 153]	≤ 6.7
Cc1ncc(CCN(CC2CC2)C(=O)[C@H]2CN([C@H]3c4ccc(Cl)cc4CCc4cc(Br)cnc43)CCN2C(=O)OC(C)(C)C)n1C (single isomer, unassigned) [Example 351]	≤ 6.7
CC(C)(C)NC(=O)N1CCN([C@@H]2c3ccc(Cl)cc3CCc3cc(Br)cnc32)C[C@@H]1C(=O)N(CCCn1ccnc1)Cc1ccccc1 [Example 130]	≤ 6.7
CC(C)(CCNC(=O)[C@H]1CN([C@@H]2c3ccc(Cl)cc3CCc3cc(Br)cnc32)CCN1C(=O)CC1CCN(C(N)=O)CC1)n1ccnc1 [Example 9]	≤ 6.7
Cc1cn(CCCN(C[C@@H](O)CO)C(=O)[C@H]2CN([C@H]3c4ccc(Cl)cc4CCc4cccnc43)CCN2C(=O)OC2CCCCC2)cn1 (single isomer, unassigned) [Example 318]	≤ 6.7
Cc1cn(CCCN(Cc2ccccc2)C(=O)[C@H]2CN([C@@H]3c4ccc(Cl)cc4CCc4cccnc43)CCN2C(=O)OC(C)C)cn1 [Example 201]	≤ 6.7
O=C([C@H]1CN([C@H]2c3ccc(Cl)cc3CCc3cccnc32)CCN1C(=O)OC1CCCCC1)N(CCCn1ccnc1CO)Cc1ccccc1 [Example 208]	≤ 6.7
N#Cc1ccc(Cn2cncc2CCNC(=O)[C@H]2CN(C3c4ccc(Cl)cc4CCc4cc(Br)cnc43)CCN2C(=O)NC2CCCCC2)cc1 (single isomer, unassigned) [Example 98]	≤ 6.7
O=C([C@H]1CN([C@H]2c3ccc(Cl)cc3CCc3cccnc32)CCN1C(=O)OC1CCCCC1)N(CCCn1ccnc1)Cc1ccccc1 [Example 186]	≤ 6.7
CC(C)(CCNC(=O)[C@H]1CN(C2c3ccc(Cl)cc3CCc3cc(Br)cnc32)CCN1C(=O)NC1CCCCC1)n1ccnc1 (stereo partly shown) [Example 1]	≤ 6.7
CC(C)(C)OC(=O)N1CCN(C2c3ccc(Cl)cc3CCc3cc(Br)cnc32)CC1C(=O)N(CCCn1ccnc1)CC1CCCCC1 (stereo not shown) [Example 124]	≤ 6.7
Cc1cn(CCCN(CCc2ccccc2)C(=O)[C@H]2CN(C3c4ccc(Cl)cc4CCc4cc(Br)cnc43)CCN2C(=O)OC2CCCCC2)cn1 (single isomer, unassigned) [Example 379]	≤ 6.7
CC(C)(C)NC(=O)N1CCN(C2c3ccc(Cl)cc3CCc3cc(Br)cnc32)C[C@@H]1C(=O)N(CCCc1c[nH]cn1)Cc1ccccc1 (stereo partly shown) [Example 244]	≤ 6.7
Cc1cncn1CCCN(Cc1ccccc1)C(=O)[C@H]1CN([C@H]2c3ccc(Cl)cc3CCc3cccnc32)CCN1C(=O)OC1CCCCC1 (single isomer, unassigned) [Example 325]	≤ 6.7
O=C([C@H]1CN([C@H]2c3ccc(Cl)cc3CCc3cc(Br)cnc32)CCN1C(=O)C1CCCC1)N(CCCn1ccnc1)Cc1ccccc1 [Example 155]	≤ 6.7
CC(C)(CCNC(=O)[C@H]1CN(C2c3ccc(Cl)cc3CCc3cc(Br)cnc32)CCN1S(C)(=O)=O)n1ccnc1 (mixture of isomers) [Example 15]	≤ 6.7

SMILES	IC50 [nM]
CCCOC(=O)N1CCN([C@H]2c3ccc(Cl)cc3CCc3cc(Br)cnc32)C[C@@H]1C(=O)N(CCCn1ccnc1)Cc1ccccc1 [Example 164]	≤ 6.7
Cc1cn(CCCN(Cc2ccnc(O)c2)C(=O)[C@H]2CN(C3c4ccc(Cl)cc4CCc4ccc[n+]([O-])c43)CCN2C(=O)OC2CCCCC2)cn1 (single isomer, unassigned) [Example 371]	≤ 6.7
CC(C)COC(=O)N1CCN([C@H]2c3ccc(Cl)cc3CCc3cc(Br)cnc32)C[C@@H]1C(=O)N(CCCn1ccnc1)Cc1ccccc1 [Example 162]	≤ 6.7
CCc1cn(CCCN(Cc2ccccc2)C(=O)[C@H]2CN([C@@H]3c4ccc(Cl)cc4CCc4cccnc43)CCN2C(=O)OC2CCCCC2)cn1 (single isomer, unassigned) [Example 320]	≤ 6.7
CC(C)(C)NC(=O)N1CCN([C@H]2c3ccc(Cl)cc3CCc3cc(Br)cnc32)C[C@@H]1C(=O)N(CCCn1ccnc1)Cc1ccccc1 [Example 129]	≤ 6.7
Cc1nccn1CCCN(Cc1ccccc1)C(=O)[C@H]1CN(C2c3ccc(Cl)cc3CCc3cc(Br)cnc32)CCN1C(=O)OC1CCCCC1 (single isomer, unassigned) [Example 381]	≤ 6.7
CC(C)(C)OC(=O)N1CCN(C2c3ccc(Cl)cc3CCc3cc(Br)cnc32)CC1C(=O)N(CCCn1ccnc1)Cc1cccc(C#N)c1 (stereo not shown) [Example 121]	≤ 6.7
CC(C)(C)NC(=O)N1CCN(C2c3ccc(Cl)cc3CCc3cc(Br)cnc32)C[C@@H]1C(=O)NCCn1ccnc1CO (stereo partly shown) [Example 273]	≤ 6.7
O=C([C@H]1CN([C@@H]2c3ccc(Cl)cc3CCc3cc(Br)cnc32)CCN1C(=O)NC1CCCCC1)N(CCCn1ccnc1)Cc1ccccc1 [Example 127]	≤ 6.7
CC(C)(C)NC(=O)OCc1cn(CCCNC(=O)[C@H]2CN(C3c4ccc(Cl)cc4CCc4cc(Br)cnc43)CCN2C(=O)NC(C)(C)C)cn1 (stereo partly shown) [Example 277]	≤ 6.7
Cc1cn(CCCN(Cc2ccccc2)C(=O)[C@H]2CN([C@@H]3c4ccc(Cl)cc4CCc4cccnc43)CCN2C(=O)OC2CCCC2)cn1 [Example 202]	≤ 6.7
CC(C)(C)OC(=O)N1CCN([C@@H]2c3ccc(Cl)cc3CCc3cc(Br)cnc32)C[C@@H]1C(=O)N(CCCn1ccnc1)Cc1cccnc1 [Example 207]	≤ 6.7
CCCS(=O)(=O)N1CCN([C@H]2c3ccc(Cl)cc3CCc3cc(Br)cnc32)C[C@@H]1C(=O)N(CCCn1ccnc1)Cc1ccccc1 (single isomer, unassigned) [Example 175]	≤ 6.7
CC(C)(C)OC(=O)N1CCN(C2c3ccc(Cl)cc3CCc3cc(Br)cnc32)CC1C(=O)N(CCCn1ccnc1)Cc1cccc(C(N)=O)c1 (stereo not shown) [Example 122]	≤ 6.7
CC(C)(C)NC(=O)N1CCN(C2c3ccc(Cl)cc3CCc3cc(Br)cnc32)CC1C(=O)N(CCCn1ccnc1)Cc1ccccn1 (stereo not shown) [Example 148]	≤ 6.7
O=C(NCCCn1ccnc1CO)[C@H]1CN(C2c3ccc(Cl)cc3CCc3cc(Br)cnc32)CCN1C(=O)NC1CCCCC1 (stereo partly shown) [Example 278]	≤ 6.7
CC(C)(C)OC(=O)N1CCN(C2c3ccc(Cl)cc3CCc3cc(Br)cnc32)C[C@@H]1C(=O)N(CCCn1ccnc1)Cc1ccncc1 (stereo partly shown) [Example 116]	≤ 6.7
CC(C)OC(=O)N1CCN([C@H]2c3ccc(Cl)cc3CCc3cccnc32)C[C@@H]1C(=O)N(CCCn1ccnc1)Cc1ccc(F)cc1 [Example 204]	≤ 6.7
Cc1nccn1CCNC(=O)C1CN(C2c3ccc(Cl)cc3CCc3cc(Br)cnc32)CCN1C(=O)CC1CCN(C(N)=O)CC1 (stereo not shown) [Example 288]	≤ 6.7
CC(C)(C)NC(=O)N1CCN(C2c3ccc(Cl)cc3CCc3cc(Br)cnc32)C[C@@H]1C(=O)NCCCn1ccnc1CO (stereo partly shown) [Example 271]	≤ 6.7
CC(C)(CCNC(=O)[C@H]1CN([C@H]2c3ccc(Cl)cc3CCc3cc(Br)cnc32)CCN1C(=O)Cc1cc[n+]([O-])cc1)n1ccnc1 [Example 6]	≤ 6.7
CCc1nccn1CCCN(Cc1ccccc1)C(=O)[C@H]1CN([C@H]2c3ccc(Cl)cc3CCc3cccnc32)CCN1C(=O)OC1CCCCC1 [Example 211]	≤ 6.7
O=C([C@H]1CN([C@@H]2c3ccc(Cl)cc3CCc3cccnc32)CCN1C(=O)NC1CCCCC1)N(CCCn1ccnc1)Cc1ccccc1 [Example 144]	≤ 6.7
Cc1cn(CCCN(Cc2cc[n+]([O-])cc2)C(=O)[C@H]2CN([C@H]3c4ccc(Cl)cc4CCc4cccnc43)CCN2C(=O)OC2CCCCC2)cn1 (single isomer, unassigned) [Example 317]	≤ 6.7
Cc1nccn1CCCN(Cc1ccccc1)C(=O)[C@H]1CN([C@H]2c3ccc(Cl)cc3CCc3cccnc32)CCN1C(=O)OC1CCCCC1 (single isomer, unassigned) [Example 310]	≤ 6.7
CC(C)(C)OC(=O)N1CCC([C@H]2c3ccc(Cl)cc3CCc3cc(Br)cnc32)CC1C(=O)N(CCCn1ccnc1)Cc1ccccc1 (single isomer, unassigned) [Example 78 Step B (Isomer C)]	≤ 2.7
Cc1cn(CCCN(Cc2ccc(Cl)cc2)C(=O)[C@H]2CN([C@H]3c4ccc(Cl)cc4CCc4cccnc43)CCN2C(=O)OC2CCCCC2)cn1 (single isomer, unassigned) [Example 323]	≤ 6.7
